Laboratory results from PubChem BioAssay AID2730 (National Center for Advancing Translational Sciences (NCATS), 2010).
The inconclusive results got no clear call from the source; some entries with a clear call stand among them for comparison. Potencies of inconclusive entries are doubtful fits and often do not repeat. The source made the active and inactive calls. The call rests on the fitted dose curve; in most records, active means well fitted inhibition curve with a large enough effect; inconclusive means small, poorly fitted or top-dose-only effect; inactive means no such curve, though single readings can be large or run the other way.

Assay: High Content Assay for Compounds that inhibit the Assembly of the Perinucleolar Compartment: Confirmation of PNC Inhibition
Details: PC3M PTB-GFP, PNC prevalence imaging, 16 h; series mostly up to 46.1 µM; activity, negative = PNC inhibition: at the top concentration
How it was run: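 Confirmation in concentration-response of primary-screen actives: after a 16 hour compound exposure, paraformaldehyde-fixed, Hoechst-counterstained cells were imaged by automated microscopy and the fraction of cells carrying PNCs was quantified, with camptothecin as reference inhibitor.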

Potency, inconclusive:
O=C(N/N=C/c1cc(Cl)ccc1O)C(=O)Nc1ccccc1OC(F)(F)C(F)F 22.4 µM [inhibitor, partial curve, poor fit], Cc1cc(SCC(=O)c2cc(C)n(C)c2C)nc2ccccc12 31.6 µM [inhibitor, single point], Cc1ccc(C(C)C)c(OCc2ccc(C(=O)N/N=C/c3ccc(O)cc3O)cc2)c1 7.94 µM [inhibitor, single point], O=C1C(Nc2ccccc2)=C/C(=N/S(=O)(=O)c2cccs2)c2ccccc21 25.1 µM [inhibitor, partial curve, poor fit], O=S(=O)(Nc1cc(Sc2cccc3cccnc23)c(O)c2ccccc12)c1ccc(F)cc1 14.1 µM [inhibitor, single point], O=c1c2ccccc2nnn1CSc1ccc2ccccc2n1 15.8 µM [inhibitor, partial curve], Cc1ccc(S(=O)(=O)N(C)c2ccc(OCC(=O)Nc3nc4ccccc4s3)cc2)cc1 12.6 µM [inhibitor, full curve, poor fit], CNS(=O)(=O)c1cccc(C(=O)Nc2cccc(Cl)c2)c1 17.8 µM [inhibitor, partial curve, poor fit]

activity, negative = PNC inhibition, inactive:
CCN1C(=O)c2cccc3c(S(=O)(=O)N(C(=O)c4ccncc4)c4ccc(OC)cc4)ccc1c23 -0.908%, COc1cccc(CNc2cccc3cccnc23)c1O 6.82%
